Measured values from PubChem BioAssay AID504467 (National Center for Advancing Translational Sciences (NCATS), 2011).
About 7,700 (2.3%) of roughly 330,000 compounds were called active. Inconclusive results, whose numbers are uncertain, are shown with a selection of clear calls. The call rests on the fitted dose curve; in most records, active means well fitted inhibition curve with a large enough effect; inconclusive means small, poorly fitted or top-dose-only effect, or effect the other way; inactive means flat fitted curve, though single readings scatter. A potency beside an inconclusive call is a rough fit, not a confirmed value. Residues, ends and D or L forms follow the SMILES beside them. *: point of attachment. Cbz = O=C(OCc1ccccc1)*; OtBu = CC(C)(C)O*; tBu = CC(C)(C)*

Assay: qHTS screen for small molecules that inhibit ELG1-dependent DNA repair in human embryonic kidney (HEK293T) cells expressing luciferase-tagged ELG1; further: nearly all actives have a fitted effect of over 55% in size
Conditions: HEK293T ELG1-luciferase reporter, luminescence, 16 h, DNA damage induced by 5-fluorouridine; series mostly up to 46.1 µM
Summary of the method: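 Luminescence from the luciferase reporter, measured 30 min after ONE-Glo reagent at room temperature, was the read-out. Beforehand, 2,000 cells per well were exposed for 16 hr at 37 °C to 5-fluorouridine together with compound or vehicle.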
Potency means the concentration at half of the fitted maximal effect.

Compound | Potency
COc1ccc(/C=C/C(=O)Nc2ccc3nc4n(c(=O)c3c2)CCCC4)cc1OC | inactive
CC(=O)NC(=S)Nc1ccc(-c2nc3ccc(C)cc3s2)cc1 | inconclusive: 3.66 µM [activator, full curve]
O=C(N/N=C/c1ccc(OC2CSC2)cc1)c1ccccc1 | inconclusive: 9.2 µM [activator, partial curve]
O=C(NCC1CC1)c1cccc2c1C(=O)c1ccc(N3CCCC3)cc1S2(=O)=O | inconclusive: 25.9 µM [inhibitor, partial curve, poor fit]
Clc1ccccc1Nc1nc2ccccc2o1 | inconclusive: 5.17 µM [activator, partial curve]
COc1ccc(N2CCN(C(=O)CSc3nnc(CNc4ccccc4)o3)CC2)cc1 | inconclusive: 20.6 µM [inhibitor, partial curve]
COc1ccc2c(=O)c(C(=O)NCCc3ccc(OC)c(OC)c3)c[nH]c2c1 | inconclusive: 18.4 µM [inhibitor, partial curve]
c1ccc(-c2nn[nH]n2)nc1 | inactive
C/C(CC(=O)Nc1ccc2c(c1)OCCO2)=N\NC(=O)C(=O)Nc1ccccc1C | inconclusive: 18.3 µM [activator, single point]
CN(C)CCN(CC1CCCN(Cc2ccccc2F)C1)C(=O)c1ccc(F)cc1 (stereo unspecified) | inactive
Cc1ccc(/C=[N+](\[O-])c2ccccc2C)o1 | inactive
O=C(CSc1ccc(-c2ccco2)nn1)Nc1ccc(F)cc1 | inconclusive: 29.1 µM [inhibitor, single point]
CC(C)OCCCn1c(=O)c2ccccc2n2c(CCC(=O)N3CCN(c4ccccn4)CC3)nnc12 | inconclusive: 16.4 µM [inhibitor, partial curve, poor fit]
Cc1cccc(Cc2nnc(CCC(=O)N(C)C3CCOC3)o2)c1 (stereo unspecified) | inconclusive: 20.6 µM [activator, partial curve]
COc1ccc(OC)c(NC(=O)CC2C(=O)NCCN2C(=O)c2ccccc2)c1 (stereo unspecified) | inactive
COc1ccc(N=Nc2cc(C)ccc2O)cc1 | inconclusive: 4.61 µM [activator, partial curve]
COc1ccc(-c2c(C(=O)O)c(C(=O)O)c3n2CCC3)cc1 | inactive
Nc1c(C(=O)N2CCOCC2)sc(=S)n1-c1ccccc1 | inactive
O=C(Nc1ccc2c(c1)OCO2)c1ccc(COc2ccc3c(c2)CCC3)o1 | inconclusive: 23.1 µM [inhibitor, single point]
CCC(/C=C1\Sc2ccc(OC)cc2N1CC)=C\c1sc2ccc(OC)cc2[n+]1CCCS(=O)(=O)[O-] | inconclusive: 20.6 µM [inhibitor, single point]
COc1ccc(/C=C2\SC(=O)N(CCC(=O)NC3CCS(=O)(=O)C3)C2=O)cc1 (stereo unspecified) | inconclusive: 13 µM [activator, partial curve]
Cc1cccc(-n2ncc3c2CCCC3NC(=O)C2CCOCC2)c1C (stereo unspecified) | inconclusive: 5.17 µM [inhibitor, partial curve]

Compound | Potency
CCN(CC(=O)Nc1ccccc1OC)C(=O)CCOc1ccc(C(C)(C)C)cc1 | inactive
O=C(CSc1nc2ccccc2s1)Nc1ccc(Cl)c(S(=O)(=O)N2CCOCC2)c1 | inconclusive: 20.6 µM [inhibitor, single point]
COc1cc(/C=C2/C(=N)N3C=CSC3=NC2=O)ccc1OCCCOc1c(C)cccc1C | inactive
COC(=O)c1ccc(NC(=O)C(=O)N2CCN(C(=S)Nc3cccc(OC)c3)CC2)cc1 | inconclusive: 29.1 µM [inhibitor, single point]
CCCCC(=O)Nc1c2c(nn1-c1ccc(C)cc1)CS(=O)(=O)C2 | inactive
CCn1nccc1C(=O)Nc1cc(Cl)ccc1Cl | inactive
COc1ccc(CN2CCN(C(=O)Cn3nc(C)n4cccc4c3=O)CC2)c(OC)c1OC | inconclusive: 25.9 µM [inhibitor, single point]
O=C1[C@@H]2Cc3c([nH]c4ccccc34)C(c3cccc(Br)c3)N2C(=O)CN1C1CCN(Cc2ccccc2)CC1 (stereo partly specified) | inconclusive: 32.6 µM [inhibitor, partial curve, poor fit]
Cc1cc(C(=O)COC(=O)c2ccc[nH]c2=O)c(C)n1C | inconclusive: 20.6 µM [activator, partial curve, poor fit]
O=C(Cc1sc(Nc2ccccc2)nc1-c1ccccc1)NCc1ccccc1 | inconclusive: 18.4 µM [inhibitor, single point]
Cc1ccc2nc(-c3cccc(Br)c3)cc(C(=O)NCC3CCCO3)c2c1 (stereo unspecified) | inconclusive: 18.3 µM [inhibitor, partial curve]
COc1ccc(N2Cc3cccc(C(=O)O)c3C2=O)cc1 | inconclusive: 20.6 µM [activator, partial curve, poor fit]
COc1ccc(-c2cc(C(F)(F)F)nc(SCC(=O)N(C)Cc3cn(C)nc3C)n2)cc1OC | inconclusive: 29.1 µM [inhibitor, single point]
COc1cccc(CNC(=O)C2CCN(S(=O)(=O)c3cccs3)CC2)c1 | inactive
CN(c1ccccc1)S(=O)(=O)c1ccc(C(=O)Nc2nnc(C3CC3)s2)cc1 | inactive
Cc1cc(C(=O)N2CCCC(C(=O)c3ccc(Oc4ccccc4)cc3)C2)n[nH]1 (stereo unspecified) | inconclusive: 29.1 µM [inhibitor, single point]
c1ccc(-c2noc(CSc3nc4ccccc4o3)n2)cc1 | inconclusive: 20.6 µM [activator, partial curve, poor fit]
Cc1ccc(-n2[nH]c(C)c(/C=N/c3ccccn3)c2=O)cc1 | inactive
Cc1c(CCOC(=O)c2ccc(Cl)cc2Cl)sc[n+]1CC(=O)c1ccccc1 | inconclusive: 13 µM [activator, partial curve, poor fit]
O=C(CN1CCOCC1)Nc1ccc(F)cc1 | inconclusive: 0.164 µM [activator, full curve, poor fit]
CC(=O)c1ccc(NC(=O)c2ccc(S(=O)(=O)c3ccccc3)cc2)cc1 | inconclusive: 29.1 µM [inhibitor, single point]
O=C(Cc1c[nH]c2ccccc12)NCc1cccs1 | inconclusive: 14.6 µM [activator, partial curve]

Compound | Potency
NC(=O)C1C(c2ccccc2)=C1c1ccccc1 | inconclusive: 18.4 µM [inhibitor, single point]
O=C(Nc1ccc2nc(SCc3ccc(Cl)cc3)sc2c1)c1ccccc1C(=O)N1CCOCC1 | inconclusive: 29.1 µM [inhibitor, single point]
CC(=O)c1ccc(OCC(O)CN2CCN(S(=O)(=O)c3cccc(Br)c3)CC2)cc1 (stereo unspecified) | inconclusive: 20.6 µM [inhibitor, single point]
CC(=O)CCC(=O)NCCc1ccccc1F | inconclusive: 18.4 µM [activator, single point]
O=C(NCc1ccccn1)C12CC3CC(CC(C3)C1)C2 | inactive
COC(=O)c1c(-c2ccc(C)cc2)csc1NC(=O)Cc1ccc(OC)c(OC)c1 | inconclusive: 23.1 µM [inhibitor, partial curve]
COc1ccc(/C=C2/C(=O)N(c3nc4ccccc4s3)N=C2CSc2ccc(Cl)cc2)cc1 | inconclusive: 7.31 µM [activator, partial curve]
CC(NC(=O)OCc1ccccc1)C(=O)NCC(=O)NC(Cc1ccc(OC(C)(C)C)cc1)C(=O)OC(C)(C)C (stereo not drawn) (Cbz-Ala-Gly-Tyr(tBu)-OtBu; configuration not given here) | inconclusive: 18.4 µM [inhibitor, partial curve, poor fit]
COC(=O)c1ccccc1NC(=O)c1ccccc1N(C)S(C)(=O)=O | inactive
CNc1ccc(C(=O)OCC(=O)NCc2ccc3c(c2)OCO3)cc1[N+](=O)[O-] | inactive
Cn1cccc/c1=N\c1cccc[n+]1C | active: 18.3 µM
Cc1sc2nc(CN(C(=O)NC3CCCCC3)C3CCCCC3)[nH]c(=O)c2c1C | inconclusive: 8.2 µM [inhibitor, partial curve, poor fit]
CCN1CCc2c(OCc3ccccc3)cccc2C1=O | inconclusive: 0.73 µM [inhibitor, single point]
Cc1ccc(/C=C(\C#N)C(=O)NC(C)C)o1 | inconclusive: 18.3 µM [activator, partial curve, poor fit]
CN1CCN(C(=O)CCCN2C(=O)/C(=C/c3ccc(Cl)cc3)SC2=S)CC1 | active: 18.3 µM
CCOC(=O)C1(CCOc2ccccc2)CCN(Cc2ccc(O)c(OC)c2)CC1 | inconclusive: 11.6 µM [inhibitor, partial curve]
Cc1ccc(NC(=O)CSc2ccccc2NC(=O)c2ccccc2)cc1Cl | inconclusive: 20.6 µM [activator, partial curve]
CCOC(=O)C1CCCN(C(=O)c2cccc(S(=O)(=O)N(C)c3ccc(C)cc3)c2)C1 (stereo unspecified) | inactive
CCOc1cc(N2CCOCC2)c(OCC)cc1NC(=O)CN1CCc2ccccc2C1 | inconclusive: 1.84 µM [inhibitor, partial curve, poor fit]
CCOc1cccc(C(=O)Nc2ccc3c(c2)OCCO3)c1 | inconclusive: 1.3 µM [activator, partial curve]
CC(C)c1ccc2oc(-c3cc(N)ccc3O)nc2c1 | inconclusive: 3.26 µM [activator, partial curve, poor fit]
CN(Cc1c(F)cccc1Cl)C(=O)CNC(=O)c1cccs1 | inconclusive: 18.3 µM [activator, partial curve]
